Reference: paper PMC5937737
No constants are given. Whether binding was seen depends on the method and setting. Binding seen in cells or lysates may run through a third protein. Some results given as binding are weak or reduced against the parent protein; the word gives no strength.

The chains behind the UniProt entries cited, without tags or fusion partners. Where a name states a change or a piece, a line headed by the entry shows the natural chain unless it says otherwise. Residues count along the entry.
UniProt P60953: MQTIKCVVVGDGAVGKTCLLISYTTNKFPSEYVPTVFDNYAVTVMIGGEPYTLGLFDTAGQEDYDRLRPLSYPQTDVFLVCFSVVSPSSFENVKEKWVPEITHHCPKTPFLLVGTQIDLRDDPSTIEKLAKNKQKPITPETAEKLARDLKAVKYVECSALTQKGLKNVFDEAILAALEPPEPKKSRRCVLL
UniProt Q13153: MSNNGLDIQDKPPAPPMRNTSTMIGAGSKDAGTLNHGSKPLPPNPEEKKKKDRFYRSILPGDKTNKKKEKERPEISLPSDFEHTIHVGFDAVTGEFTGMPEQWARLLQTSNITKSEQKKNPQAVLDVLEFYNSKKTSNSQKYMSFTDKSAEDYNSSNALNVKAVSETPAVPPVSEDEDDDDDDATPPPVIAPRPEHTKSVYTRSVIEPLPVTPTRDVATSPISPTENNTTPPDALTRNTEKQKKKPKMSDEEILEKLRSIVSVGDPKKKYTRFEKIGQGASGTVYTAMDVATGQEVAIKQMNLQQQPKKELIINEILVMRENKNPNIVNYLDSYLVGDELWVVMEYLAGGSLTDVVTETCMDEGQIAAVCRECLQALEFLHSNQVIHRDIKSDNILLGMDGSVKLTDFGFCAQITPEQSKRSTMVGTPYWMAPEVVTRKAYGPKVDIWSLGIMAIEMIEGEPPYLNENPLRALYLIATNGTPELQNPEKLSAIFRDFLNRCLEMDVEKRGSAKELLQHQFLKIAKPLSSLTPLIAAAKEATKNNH
GST-PAK[CRIB]: residues 58-141 of Q13153
UniProt P61586: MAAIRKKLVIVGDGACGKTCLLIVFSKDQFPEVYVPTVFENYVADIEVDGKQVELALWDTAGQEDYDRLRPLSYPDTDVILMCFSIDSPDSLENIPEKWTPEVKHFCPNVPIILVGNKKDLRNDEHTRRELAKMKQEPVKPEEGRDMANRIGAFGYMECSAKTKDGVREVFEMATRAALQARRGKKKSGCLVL
UniProt O96013: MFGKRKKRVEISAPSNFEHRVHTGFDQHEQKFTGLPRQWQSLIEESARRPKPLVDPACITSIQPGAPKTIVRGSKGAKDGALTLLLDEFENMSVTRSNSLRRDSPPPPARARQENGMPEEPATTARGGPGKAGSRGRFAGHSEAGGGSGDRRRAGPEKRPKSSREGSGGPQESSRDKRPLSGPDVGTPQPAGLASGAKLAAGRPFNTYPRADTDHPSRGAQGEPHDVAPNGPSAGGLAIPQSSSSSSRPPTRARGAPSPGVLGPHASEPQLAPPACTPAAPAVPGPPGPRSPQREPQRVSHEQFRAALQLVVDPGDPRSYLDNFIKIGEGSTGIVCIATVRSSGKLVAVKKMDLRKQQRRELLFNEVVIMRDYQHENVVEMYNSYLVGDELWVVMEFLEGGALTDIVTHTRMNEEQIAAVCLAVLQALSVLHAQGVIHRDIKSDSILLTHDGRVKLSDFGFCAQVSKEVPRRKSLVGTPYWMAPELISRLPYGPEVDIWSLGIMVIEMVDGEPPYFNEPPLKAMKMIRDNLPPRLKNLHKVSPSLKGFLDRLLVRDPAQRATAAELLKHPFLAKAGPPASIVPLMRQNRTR
UniProt Q9P212, residues 2130-2240: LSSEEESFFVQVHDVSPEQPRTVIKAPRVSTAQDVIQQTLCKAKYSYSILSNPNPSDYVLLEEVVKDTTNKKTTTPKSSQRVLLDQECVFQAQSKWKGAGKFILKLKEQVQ
UniProt P42336, residues 127-314: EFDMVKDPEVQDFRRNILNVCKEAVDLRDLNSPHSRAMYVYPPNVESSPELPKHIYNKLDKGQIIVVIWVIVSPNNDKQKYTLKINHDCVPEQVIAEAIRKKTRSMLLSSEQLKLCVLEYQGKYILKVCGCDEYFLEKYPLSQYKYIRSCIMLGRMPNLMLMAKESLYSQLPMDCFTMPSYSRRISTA

Columns and labels:
[1] = biological target: endogenous CDC42 (HEK293T) (human (endogenous in HEK293T)) (UniProt P60953); assay: co-IP; endogenous PAK1, CDC42 or RAC1 immunoprecipitated (Protein A agarose or Protein G sepharose) from lysates of transfected HEK293T cells, 0.1% or 10% serum; 150 mM NaCl, 50 mM HEPES pH 7.5, 0.2% Nonidet P40 (S5B Fig: 50 mM Tris-HCl pH 8, 120 mM NaCl, 1 mM EDTA, 0.5% Nonidet P40); co-precipitated HA-RIT1 detected by anti-HA immunoblot
[2] = biological target: endogenous PAK1 (HEK293T) (human (endogenous in HEK293T)) (UniProt Q13153); assay: as above
[3] = biological target: endogenous CDC42 (HEK293T) (human (endogenous in HEK293T)) (UniProt P60953); assay: co-IP; anti-PAK1 or anti-CDC42 antibody on magnetic Dynabeads Protein G; mRIPA buffer (50 mM HEPES pH 7.5, 150 mM NaCl, 1% Nonidet P40, 0.5% sodium deoxycholate, 0.05% SDS, 1 mM EDTA); HEK293T (transient, 10% serum; S3B, S5A Figs) or Flp-In 293 (stable; S6D Fig) lysates; anti-HA immunoblot
[4] = biological target: GST-PAK[CRIB] (UniProt Q13153); assay: pull-down; GST-RBD/RA/CRIB fusion proteins on beads precipitate HA-RIT1 from HEK293T cell extracts; cells in 0.1% serum, 10% serum, or 0.1% serum then 10 ng/ml EGF for 20 min; anti-HA immunoblot; only the target purified
[5] = biological target: EGFP-RHOA (UniProt P61586); assay: co-IP; ectopically expressed MYC-, GFP- or EGFP-tagged bait precipitated from HEK293T lysates (0.1% serum) with anti-MYC beads, GFP trap or primary anti-CDC42/anti-RAC1 antibodies; immunoblot
[6] = biological target: MYC-CDC42 (UniProt P60953); assay: as above
[7] = biological target: GFP-PAK4 (UniProt O96013); assay: as above
[8] = biological target: endogenous PAK1 (HEK293T) (human (endogenous in HEK293T)) (UniProt Q13153); assay: co-IP; anti-PAK1 or anti-CDC42 antibody on magnetic Dynabeads Protein G; mRIPA buffer (50 mM HEPES pH 7.5, 150 mM NaCl, 1% Nonidet P40, 0.5% sodium deoxycholate, 0.05% SDS, 1 mM EDTA); HEK293T (transient, 10% serum; S3B, S5A Figs) or Flp-In 293 (stable; S6D Fig) lysates; anti-HA immunoblot
[9] = biological target: GST-PLCE1[RA] (UniProt Q9P212); assay: pull-down; GST-RBD/RA/CRIB fusion proteins on beads precipitate HA-RIT1 from HEK293T cell extracts; cells in 0.1% serum, 10% serum, or 0.1% serum then 10 ng/ml EGF for 20 min; anti-HA immunoblot; only the target purified
[10] = biological target: GST-PIK3CA[RBD] (UniProt P42336); assay: as above
[11] = biological target: endogenous CDC42 (Flp-In 293) (human (endogenous in Flp-In 293)) (UniProt P60953); assay: co-IP; anti-PAK1 or anti-CDC42 antibody on magnetic Dynabeads Protein G; mRIPA buffer (50 mM HEPES pH 7.5, 150 mM NaCl, 1% Nonidet P40, 0.5% sodium deoxycholate, 0.05% SDS, 1 mM EDTA); HEK293T (transient, 10% serum; S3B, S5A Figs) or Flp-In 293 (stable; S6D Fig) lysates; anti-HA immunoblot

Row | binding [1] | binding [2] | binding [3] | binding [4] | binding [7] | Substance | other results
1 | binds | binds | binds | binds | no binding | HA-RIT1 p.G95A (from UniProt Q92963-1 1-219) | binding [5]: no binding; binding [6]: binds
2 | binds | binds | binds | binds | no binding | HA-RIT1 wildtype (from UniProt Q92963-1 1-219) | binding [8]: binds; binding [9]: binds; binding [10]: binds; binding [5]: no binding; binding [6]: binds
3 | binds | – | binds | binds | – | HA-RIT1 p.K23N (from UniProt Q92963-1 1-219) | –
4 | binds | – | binds | binds | – | HA-RIT1 p.G31R (from UniProt Q92963-1 1-219) | –
5 | binds | binds | binds | binds | – | HA-RIT1 p.F82L (from UniProt Q92963-1 1-219) | –
6 | – | – | – | – | binds | endogenous CDC42 (HEK293T) (from UniProt P60953 1-191) | –
7 | – | – | – | – | – | HA-tagged RIT1 p.A57G (Flp-In 293 stable cell line) (from UniProt Q92963-1 1-219) | binding [11]: binds
8 | binds | – | binds | binds | – | HA-RIT1 p.A57G (from UniProt Q92963-1 1-219) | –
9 | binds | binds | binds | binds | – | HA-RIT1 p.M90V (from UniProt Q92963-1 1-219) | –
10 | – | – | – | – | – | HA-tagged RIT1 p.G31R (Flp-In 293 stable cell line) (from UniProt Q92963-1 1-219) | binding [11]: binds
